Some of the results follow. The main result of the screen is listed elsewhere. These columns were measured beside it and carry no call. The list favours compounds with an active or inconclusive main result. Words in brackets tell the shape of the fitted curve; partial curves, single points and poor fits give uncertain potencies.
Assay: qHTS Assay for Modulators of Lamin A Splicing
Conditions: HeLa LMNA splicing GFP/RFP minigene ratio, 48 h
How it was run: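 Read-out is the ratio of GFP to DsRed2 object intensity, acquired by 488 nm laser-scanning cytometry on HeLa lamin A-EGFP minigene reporter cells. Compound incubation 48 hrs at 37 °C in Opti-MEM with 2% FBS; DMSO 0.5% final.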

[1] = measured here: RFP viability control channel
[2] = measured here: GFP splicing reporter channel

Structure (SMILES)	AC50 [1]	AC50 [2]
Cc1ccc2nc(NC(=O)CSc3nc4ccccc4o3)sc2c1	11.2 µM [rising, single point]	–
Cc1cc(OC(=O)c2c(Cl)cc(Cl)cc2Cl)nc(C)n1	3.98 µM [rising, partial curve]	–
CCOc1ccc2nc(NC(=O)CSC3=NCCS3)sc2c1	20 µM [rising, single point]	15.8 µM [rising, partial curve]
Cc1cc(C)nc(/N=C(\N)Nc2ccccc2-c2ccccc2)n1	–	6.31 µM [falling, full curve, poor fit]
COCCNC(=O)CCc1c(C)nc2nc(-c3cc(OC)cc(OC)c3)nn2c1C	6.31 µM [rising, single point]	–
CCCc1oc2ccc(NS(=O)(=O)c3ccc(OC)cc3)cc2c1C(=O)OCC	–	35.5 µM [falling, single point]
O=C(CCCCCN1C(=O)CCC1=O)Nc1ccc(Cl)c(C(F)(F)F)c1	35.5 µM [rising, single point]	–
Cc1ccc(C(NC(=O)N2CCCCC2)=C(Cl)Cl)cc1F	5.62 µM [rising, partial curve]	–
CCOc1ccccc1CNC(=O)c1cccc(NC(=O)c2nsc3ccccc23)c1	0.447 µM [rising, full curve, poor fit]	0.398 µM [rising, full curve, poor fit]
Cc1nc(SCC(=O)N2CCN(c3ccccc3)CC2)c2oc3ccccc3c2n1	14.1 µM [rising, partial curve]	–
CCCN(C(=O)CCn1cnc2onc(-c3ccc(F)cc3)c2c1=O)c1ccccc1C	31.6 µM [rising, single point]	–
COc1cc(C(=O)Nc2nnc(CC(C)(C)C)s2)c([N+](=O)[O-])cc1OC	17.8 µM [rising, single point]	17.8 µM [rising, single point]
COc1ccc2cc3c(N)nn(C(=O)C4CCC(C(C)(C)C)CC4)c3nc2c1 (stereo unspecified)	10 µM [rising, partial curve]	–
CN(C(=S)NCCN1CCOCC1)C(c1ccccc1)c1ccccc1	0.00501 µM [rising, full curve, poor fit]	–
CC1(CCc2ccccc2)NC(=O)N(Cc2nnc(-c3ccccc3Br)o2)C1=O (stereo unspecified)	35.5 µM [rising, single point]	–
Cc1ccccc1OCCC(=O)Nc1ccc(F)c(Cl)c1	4.47 µM [rising, single point]	–
N#Cc1ccccc1NC(=O)C(=O)NCC(c1cccnc1)N1CCc2ccccc2C1 (stereo unspecified)	0.0282 µM [rising, full curve, poor fit]	0.0316 µM [rising, full curve]

Reformatted: entries from further up

| Structure (SMILES) | AC50 [1] | AC50 [2] |
| --- | --- | --- |
| Cc1ccc(C(NC(=O)N2CCCCC2)=C(Cl)Cl)cc1F | 5.62 µM [rising, partial curve] | – |
| CCOc1ccccc1CNC(=O)c1cccc(NC(=O)c2nsc3ccccc23)c1 | 0.447 µM [rising, full curve, poor fit] | 0.398 µM [rising, full curve, poor fit] |

Reference: PubChem BioAssay AID1487 (National Center for Advancing Translational Sciences (NCATS), 2009)
